Among the data in the supplement of paper PMC6411743 are NP40-soluble protein abundance values, retold here.

Sequences of proteins named here, by UniProt entry; tags and fusion partners are left off. A change or cut given only in a name is not applied to a line headed by its entry.
UniProt P47224: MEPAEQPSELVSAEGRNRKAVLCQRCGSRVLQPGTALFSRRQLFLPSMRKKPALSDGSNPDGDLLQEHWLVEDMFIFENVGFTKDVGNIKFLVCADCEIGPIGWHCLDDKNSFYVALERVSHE
UniProt P53365: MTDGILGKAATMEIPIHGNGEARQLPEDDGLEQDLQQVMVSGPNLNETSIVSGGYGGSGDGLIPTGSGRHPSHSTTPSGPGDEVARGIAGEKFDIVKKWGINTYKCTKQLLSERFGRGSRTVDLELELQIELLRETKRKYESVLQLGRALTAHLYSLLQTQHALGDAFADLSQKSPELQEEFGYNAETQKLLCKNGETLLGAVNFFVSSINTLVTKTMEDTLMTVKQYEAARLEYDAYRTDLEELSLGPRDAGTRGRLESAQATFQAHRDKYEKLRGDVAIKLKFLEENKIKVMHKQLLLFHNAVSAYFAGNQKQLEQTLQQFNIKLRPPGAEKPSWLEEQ
UniProt P49841: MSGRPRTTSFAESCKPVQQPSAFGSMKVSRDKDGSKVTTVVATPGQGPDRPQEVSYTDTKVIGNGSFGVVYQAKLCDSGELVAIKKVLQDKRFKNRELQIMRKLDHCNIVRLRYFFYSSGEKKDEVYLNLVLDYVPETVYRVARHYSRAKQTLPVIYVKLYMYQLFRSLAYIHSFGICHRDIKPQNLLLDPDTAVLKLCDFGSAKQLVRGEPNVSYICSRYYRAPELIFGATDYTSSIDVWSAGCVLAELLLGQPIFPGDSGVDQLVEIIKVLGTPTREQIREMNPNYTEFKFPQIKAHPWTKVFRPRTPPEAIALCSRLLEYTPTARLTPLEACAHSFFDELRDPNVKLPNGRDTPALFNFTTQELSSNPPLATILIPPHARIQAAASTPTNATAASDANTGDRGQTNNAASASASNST
UniProt P49590: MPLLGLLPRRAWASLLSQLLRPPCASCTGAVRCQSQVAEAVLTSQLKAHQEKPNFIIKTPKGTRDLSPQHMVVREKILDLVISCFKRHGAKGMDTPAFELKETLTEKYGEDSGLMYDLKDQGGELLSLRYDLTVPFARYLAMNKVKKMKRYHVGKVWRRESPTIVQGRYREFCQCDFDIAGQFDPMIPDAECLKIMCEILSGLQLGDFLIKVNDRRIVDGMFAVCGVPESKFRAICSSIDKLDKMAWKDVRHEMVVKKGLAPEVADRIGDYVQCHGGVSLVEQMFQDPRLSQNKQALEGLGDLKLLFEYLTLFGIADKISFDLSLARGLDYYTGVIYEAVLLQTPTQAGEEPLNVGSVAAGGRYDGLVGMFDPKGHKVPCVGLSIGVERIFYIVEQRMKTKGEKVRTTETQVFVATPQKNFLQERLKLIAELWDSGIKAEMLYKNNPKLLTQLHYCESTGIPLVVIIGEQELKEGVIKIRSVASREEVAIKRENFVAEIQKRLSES
UniProt P54278: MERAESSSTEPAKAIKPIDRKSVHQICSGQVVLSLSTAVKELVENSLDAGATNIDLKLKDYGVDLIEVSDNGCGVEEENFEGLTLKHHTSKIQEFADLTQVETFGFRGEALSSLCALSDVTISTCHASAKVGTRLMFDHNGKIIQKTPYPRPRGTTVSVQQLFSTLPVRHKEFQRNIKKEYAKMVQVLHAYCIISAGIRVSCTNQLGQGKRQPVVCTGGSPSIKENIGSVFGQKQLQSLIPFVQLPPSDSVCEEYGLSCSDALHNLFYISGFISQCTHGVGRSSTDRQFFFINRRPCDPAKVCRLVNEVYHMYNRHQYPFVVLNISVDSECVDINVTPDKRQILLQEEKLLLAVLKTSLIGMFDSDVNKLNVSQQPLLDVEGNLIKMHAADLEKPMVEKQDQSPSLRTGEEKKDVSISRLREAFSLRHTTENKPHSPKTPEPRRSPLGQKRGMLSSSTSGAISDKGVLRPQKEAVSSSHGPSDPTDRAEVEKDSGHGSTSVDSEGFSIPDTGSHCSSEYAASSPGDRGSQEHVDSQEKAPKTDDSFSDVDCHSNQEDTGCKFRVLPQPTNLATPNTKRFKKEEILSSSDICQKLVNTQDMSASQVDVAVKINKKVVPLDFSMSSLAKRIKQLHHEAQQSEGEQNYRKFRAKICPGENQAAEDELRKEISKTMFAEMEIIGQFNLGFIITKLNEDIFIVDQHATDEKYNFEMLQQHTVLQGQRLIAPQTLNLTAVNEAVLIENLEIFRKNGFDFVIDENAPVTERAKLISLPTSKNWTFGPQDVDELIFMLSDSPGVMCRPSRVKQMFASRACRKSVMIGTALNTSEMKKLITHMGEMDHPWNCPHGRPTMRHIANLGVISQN
UniProt P53990, whole entry: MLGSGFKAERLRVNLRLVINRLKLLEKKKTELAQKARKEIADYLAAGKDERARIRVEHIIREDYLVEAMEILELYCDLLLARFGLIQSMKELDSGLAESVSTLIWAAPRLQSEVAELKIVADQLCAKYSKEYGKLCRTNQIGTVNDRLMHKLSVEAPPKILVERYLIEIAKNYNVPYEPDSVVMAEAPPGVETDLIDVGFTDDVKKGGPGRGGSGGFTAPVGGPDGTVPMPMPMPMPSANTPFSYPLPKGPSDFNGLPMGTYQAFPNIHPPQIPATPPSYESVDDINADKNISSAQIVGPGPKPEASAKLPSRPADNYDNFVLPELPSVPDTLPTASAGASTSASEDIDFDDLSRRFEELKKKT
UniProt P51649: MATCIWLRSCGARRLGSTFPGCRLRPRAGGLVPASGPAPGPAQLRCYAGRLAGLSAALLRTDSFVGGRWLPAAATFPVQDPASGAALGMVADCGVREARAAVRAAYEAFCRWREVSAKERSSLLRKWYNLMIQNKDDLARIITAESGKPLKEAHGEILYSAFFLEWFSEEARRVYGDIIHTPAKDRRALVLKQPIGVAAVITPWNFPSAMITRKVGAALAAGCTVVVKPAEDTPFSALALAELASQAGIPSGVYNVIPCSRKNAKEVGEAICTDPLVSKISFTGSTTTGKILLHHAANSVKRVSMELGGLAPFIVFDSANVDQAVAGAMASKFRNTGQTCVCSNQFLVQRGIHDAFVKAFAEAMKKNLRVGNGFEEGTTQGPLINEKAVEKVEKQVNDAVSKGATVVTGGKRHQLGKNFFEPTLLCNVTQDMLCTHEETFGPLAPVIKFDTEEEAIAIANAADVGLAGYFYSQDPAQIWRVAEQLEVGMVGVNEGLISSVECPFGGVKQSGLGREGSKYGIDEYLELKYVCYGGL
UniProt P51452: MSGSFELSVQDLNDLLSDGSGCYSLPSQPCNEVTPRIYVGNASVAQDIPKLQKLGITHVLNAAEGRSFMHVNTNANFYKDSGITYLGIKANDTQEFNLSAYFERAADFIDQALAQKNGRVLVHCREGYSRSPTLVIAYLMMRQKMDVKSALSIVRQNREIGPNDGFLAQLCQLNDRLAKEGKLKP
UniProt P42025, whole entry: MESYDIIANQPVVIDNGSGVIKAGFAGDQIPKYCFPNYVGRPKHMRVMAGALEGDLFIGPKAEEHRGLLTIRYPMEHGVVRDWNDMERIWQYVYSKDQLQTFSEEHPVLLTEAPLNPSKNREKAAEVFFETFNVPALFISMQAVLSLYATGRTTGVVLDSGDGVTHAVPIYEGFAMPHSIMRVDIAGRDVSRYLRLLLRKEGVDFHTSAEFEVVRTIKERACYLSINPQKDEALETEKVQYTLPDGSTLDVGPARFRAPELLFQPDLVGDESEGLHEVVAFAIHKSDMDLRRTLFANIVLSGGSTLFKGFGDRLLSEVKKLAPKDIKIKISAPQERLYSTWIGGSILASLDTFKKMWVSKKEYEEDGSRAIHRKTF
UniProt P41214: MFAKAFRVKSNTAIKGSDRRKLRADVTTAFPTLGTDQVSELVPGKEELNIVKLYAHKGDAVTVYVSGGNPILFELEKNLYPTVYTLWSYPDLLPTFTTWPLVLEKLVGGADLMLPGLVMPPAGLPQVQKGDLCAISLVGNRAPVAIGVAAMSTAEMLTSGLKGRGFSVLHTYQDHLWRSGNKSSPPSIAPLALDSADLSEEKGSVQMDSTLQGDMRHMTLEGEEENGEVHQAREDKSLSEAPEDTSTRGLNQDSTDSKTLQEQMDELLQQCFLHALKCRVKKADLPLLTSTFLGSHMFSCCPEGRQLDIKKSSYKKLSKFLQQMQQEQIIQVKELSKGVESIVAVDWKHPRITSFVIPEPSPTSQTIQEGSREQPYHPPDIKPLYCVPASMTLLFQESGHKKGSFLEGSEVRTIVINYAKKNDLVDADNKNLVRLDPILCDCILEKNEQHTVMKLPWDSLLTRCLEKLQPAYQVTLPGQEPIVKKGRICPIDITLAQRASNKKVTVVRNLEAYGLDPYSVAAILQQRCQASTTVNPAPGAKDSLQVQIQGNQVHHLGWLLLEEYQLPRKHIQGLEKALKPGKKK
UniProt P48634: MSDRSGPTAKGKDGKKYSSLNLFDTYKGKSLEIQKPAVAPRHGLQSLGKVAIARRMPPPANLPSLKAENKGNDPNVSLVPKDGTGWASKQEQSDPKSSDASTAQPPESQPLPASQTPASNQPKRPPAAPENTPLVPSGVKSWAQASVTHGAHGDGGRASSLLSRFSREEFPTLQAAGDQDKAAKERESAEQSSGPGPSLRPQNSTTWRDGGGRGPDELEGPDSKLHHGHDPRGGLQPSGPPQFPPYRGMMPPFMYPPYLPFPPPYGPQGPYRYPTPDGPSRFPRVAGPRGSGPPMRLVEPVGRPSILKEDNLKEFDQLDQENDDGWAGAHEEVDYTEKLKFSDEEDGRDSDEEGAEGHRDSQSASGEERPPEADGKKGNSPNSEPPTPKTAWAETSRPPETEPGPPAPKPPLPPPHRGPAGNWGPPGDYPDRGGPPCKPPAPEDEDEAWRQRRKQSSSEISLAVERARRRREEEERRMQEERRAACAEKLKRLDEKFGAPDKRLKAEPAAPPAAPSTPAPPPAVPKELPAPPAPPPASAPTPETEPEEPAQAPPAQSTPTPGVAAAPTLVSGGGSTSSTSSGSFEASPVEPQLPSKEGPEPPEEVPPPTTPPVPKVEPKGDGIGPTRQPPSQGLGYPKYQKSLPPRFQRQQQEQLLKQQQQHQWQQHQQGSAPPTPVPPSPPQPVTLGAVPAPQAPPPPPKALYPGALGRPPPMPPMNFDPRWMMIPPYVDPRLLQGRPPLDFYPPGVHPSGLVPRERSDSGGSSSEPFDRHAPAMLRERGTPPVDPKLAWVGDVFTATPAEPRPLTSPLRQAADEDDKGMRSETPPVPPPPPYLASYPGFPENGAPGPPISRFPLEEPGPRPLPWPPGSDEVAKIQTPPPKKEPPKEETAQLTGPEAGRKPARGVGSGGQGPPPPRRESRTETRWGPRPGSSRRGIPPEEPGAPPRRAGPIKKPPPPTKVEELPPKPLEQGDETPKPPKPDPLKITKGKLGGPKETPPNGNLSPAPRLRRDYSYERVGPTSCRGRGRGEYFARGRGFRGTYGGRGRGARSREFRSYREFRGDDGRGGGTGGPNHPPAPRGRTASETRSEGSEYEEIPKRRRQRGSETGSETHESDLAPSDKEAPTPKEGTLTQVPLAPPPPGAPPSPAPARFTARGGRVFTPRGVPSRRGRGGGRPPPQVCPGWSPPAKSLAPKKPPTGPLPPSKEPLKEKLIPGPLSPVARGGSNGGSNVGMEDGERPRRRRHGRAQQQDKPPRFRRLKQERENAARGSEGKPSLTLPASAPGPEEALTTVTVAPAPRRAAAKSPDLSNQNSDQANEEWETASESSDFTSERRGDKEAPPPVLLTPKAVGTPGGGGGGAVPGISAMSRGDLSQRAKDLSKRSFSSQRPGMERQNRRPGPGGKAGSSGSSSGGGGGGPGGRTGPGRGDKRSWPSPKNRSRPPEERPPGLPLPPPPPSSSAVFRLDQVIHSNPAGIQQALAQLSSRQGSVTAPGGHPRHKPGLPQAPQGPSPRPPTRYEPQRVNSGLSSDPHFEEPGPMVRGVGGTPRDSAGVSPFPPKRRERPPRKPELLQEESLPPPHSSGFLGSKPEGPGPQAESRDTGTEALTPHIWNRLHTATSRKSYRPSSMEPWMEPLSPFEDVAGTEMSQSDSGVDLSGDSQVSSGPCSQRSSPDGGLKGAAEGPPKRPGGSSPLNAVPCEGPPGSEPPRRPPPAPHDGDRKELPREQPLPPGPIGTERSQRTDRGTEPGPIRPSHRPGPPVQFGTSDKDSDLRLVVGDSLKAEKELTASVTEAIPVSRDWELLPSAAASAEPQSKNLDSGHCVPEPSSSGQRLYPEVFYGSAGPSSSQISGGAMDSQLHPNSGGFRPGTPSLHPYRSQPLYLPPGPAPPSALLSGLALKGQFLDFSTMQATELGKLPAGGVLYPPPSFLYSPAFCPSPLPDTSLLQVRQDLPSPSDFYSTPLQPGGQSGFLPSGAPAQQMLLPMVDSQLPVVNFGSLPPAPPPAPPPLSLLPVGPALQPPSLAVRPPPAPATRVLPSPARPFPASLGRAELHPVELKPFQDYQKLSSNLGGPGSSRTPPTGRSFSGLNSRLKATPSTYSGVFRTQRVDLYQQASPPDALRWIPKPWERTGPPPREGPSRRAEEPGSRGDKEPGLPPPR

± gives the standard deviation of the averaged measurements. The entries are a selection whose mix differs from that of the whole data set.

Compound in the first experiment: Nc1ncnc2c1ncn2[C@@H]1O[C@H](COP(=O)(O)OP(=O)(O)NP(=O)(O)O)[C@@H](O)[C@H]1O [adenylyl imidodiphosphate]
The experiment can be described thus: NP40-soluble protein abundance relative to vehicle (solubility fold change) (ratio); higher = more soluble protein in presence of AMP-PNP. As to conditions: concentration: 1mM. In outline: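 Each value is a fold change relative to the detergent-processed vehicle, calculated per replicate from vsn-normalised intensities. Jurkat crude lysate received eight concentrations (0.1 to 10 mM) for 10 min at room temperature and 3 min at 37 °C, then was solubilised in 0.8% NP40 with benzonase (60 min, 4 °C). The ultracentrifuged supernatant was TMT-labelled and run by LC-MS/MS in three independent experiments.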
For the target RFC5 (UniProt P40937), the NP40-soluble protein abundance was 1.02 ± 0.027.
With UniProt P43403 and related entries, the NP40-soluble protein abundance turned out to be 1.025 ± 0.0049.
As for SLC16A1 (UniProt P53985), the NP40-soluble protein abundance amounted to 1.02 ± 0.027.
On to UniProt P54886 and related entries, for which the NP40-soluble protein abundance came out at 1.01 ± 0.034.
Regarding RABIF (UniProt P47224), the NP40-soluble protein abundance stood at 0.9979 ± 0.0065.
Regarding VASP (UniProt P50552), the NP40-soluble protein abundance came out at 1.02 ± 0.03.
On the same count and under the same terms, the result for UniProt P53365 and related entries reads 1.01 ± 0.049.
On to UniProt P49841 and related entries, for which the NP40-soluble protein abundance was 0.991 ± 0.019.
On to MVD (UniProt P53602), for which the NP40-soluble protein abundance is 0.971 ± 0.021.
For UniProt P49590 and related entries, the NP40-soluble protein abundance worked out at 0.979 ± 0.02.
With PMS2 (UniProt P54278), the NP40-soluble protein abundance worked out at 1.11 ± 0.056.
For the target TRAPPC10 (UniProt P48553), the NP40-soluble protein abundance worked out at 0.963 ± 0.015.
On to POLR2K (UniProt P53803), for which the NP40-soluble protein abundance is 1.03 ± 0.012.
UniProt P41229 and related entries: the NP40-soluble protein abundance is 1.05 ± 0.036.
In the case of UniProt P50548 and related entries, the NP40-soluble protein abundance was determined as 0.96 ± 0.017.
For IDH2 (UniProt P48735), the NP40-soluble protein abundance is 0.963 ± 0.031.
For UniProt P53990 and related entries, the NP40-soluble protein abundance stood at 0.979 ± 0.018.
Same read-out and setting: the same measure for STAT1 (UniProt P42224): 1.02 ± 0.021; for UniProt P49916 and related entries: 1.035 ± 0.0059; for FNTA (UniProt P49354): 0.958 ± 0.056.
For the target UniProt P46934-4|H0Y9L1, the NP40-soluble protein abundance was 0.981 ± 0.018.
For UniProt P51649 and related entries, the NP40-soluble protein abundance turned out to be 0.964 ± 0.031.
Turning to SLC19A1 (UniProt P41440), the NP40-soluble protein abundance turned out to be 1.03 ± 0.031.
For the target DUSP3 (UniProt P51452), the NP40-soluble protein abundance was found to be 0.982 ± 0.039.
Still for that read-out and setting: the result for UniProt P47897 and related entries reads 0.972 ± 0.076.
Consider “UniProt P46020-2|A6NMN0 and related entries”, for which the NP40-soluble protein abundance was found to be 0.957 ± 0.016.
UniProt P54136 and related entries: the NP40-soluble protein abundance is 0.957 ± 0.051.
Consider UBA7 (UniProt P41226), for which the NP40-soluble protein abundance worked out at 0.99 ± 0.016.
Take ACTR1B (UniProt P42025): the NP40-soluble protein abundance was found to be 1 ± 0.062.
Still for that read-out and setting: the same measure for UniProt P52824 and related entries: 0.978 ± 0.0098.
In the case of SUCLG1 (UniProt P53597), the NP40-soluble protein abundance stood at 0.9736 ± 0.0091.
Turning to UniProt P49959, the NP40-soluble protein abundance was determined as 0.995 ± 0.035.
Turning to UniProt P41214, the NP40-soluble protein abundance worked out at 1.02 ± 0.032.
Take HLCS (UniProt P50747): the NP40-soluble protein abundance is 0.999 ± 0.023.
Same read-out and setting: the same measure for UniProt P48634 and related entries: 1.05 ± 0.036.
With UniProt P51572 and related entries, the NP40-soluble protein abundance worked out at 1.027 ± 0.0056.
Still for that read-out and setting: the same measure for PIK3CA (UniProt P42336): 1.01 ± 0.035; for UniProt P49757 and related entries: 1.05 ± 0.03.
For UniProt P50053 and related entries, the NP40-soluble protein abundance came to 0.994 ± 0.024.

Staying with this experiment, now noted: concentration: 2mM.
RFC5 (UniProt P40937): the NP40-soluble protein abundance worked out at 0.985 ± 0.096.
As to UniProt P43403 and related entries, the NP40-soluble protein abundance came out at 0.978 ± 0.081.
SLC16A1 (UniProt P53985): the NP40-soluble protein abundance is 1.04 ± 0.032.
For UniProt P54886 and related entries, the NP40-soluble protein abundance turned out to be 0.942 ± 0.054.
For RABIF (UniProt P47224), the NP40-soluble protein abundance turned out to be 1.01 ± 0.032.
For the target VASP (UniProt P50552), the NP40-soluble protein abundance was 1.09 ± 0.078.
On the same count and under the same terms, the result for UniProt P53365 and related entries reads 1.03 ± 0.092.
For UniProt P49841 and related entries, the NP40-soluble protein abundance stood at 0.955 ± 0.06.
The same measure, in the same setting: the result for MVD (UniProt P53602) reads 0.9638 ± 0.0049.
For UniProt P49590 and related entries, the NP40-soluble protein abundance was 0.929 ± 0.095.
Regarding PMS2 (UniProt P54278), the NP40-soluble protein abundance is 1.16 ± 0.084.
For TRAPPC10 (UniProt P48553), the NP40-soluble protein abundance is 0.935 ± 0.064.
On the same count and under the same terms, the result for POLR2K (UniProt P53803) reads 1.05 ± 0.069.
Regarding UniProt P41229 and related entries, the NP40-soluble protein abundance was found to be 1.01 ± 0.017.
With UniProt P50548 and related entries, the NP40-soluble protein abundance is 1.02 ± 0.045.
The same measure, in the same setting: the result for IDH2 (UniProt P48735) reads 0.956 ± 0.025; that for UniProt P53990 and related entries, 0.9732 ± 0.0063.
Take STAT1 (UniProt P42224): the NP40-soluble protein abundance turned out to be 0.987 ± 0.043.
Turning to UniProt P49916 and related entries, the NP40-soluble protein abundance stood at 1.01 ± 0.047.
FNTA (UniProt P49354): the NP40-soluble protein abundance came out at 0.93 ± 0.029.
UniProt P46934-4|H0Y9L1: the NP40-soluble protein abundance came out at 0.918 ± 0.038.
For UniProt P51649 and related entries, the NP40-soluble protein abundance stood at 0.934 ± 0.025.
In the case of SLC19A1 (UniProt P41440), the NP40-soluble protein abundance is 1.02 ± 0.034.
On to DUSP3 (UniProt P51452), for which the NP40-soluble protein abundance was determined as 0.981 ± 0.039.
For the target UniProt P47897 and related entries, the NP40-soluble protein abundance turned out to be 0.897 ± 0.18.
For the target “UniProt P46020-2|A6NMN0 and related entries”, the NP40-soluble protein abundance was 0.931 ± 0.046.
Turning to UniProt P54136 and related entries, the NP40-soluble protein abundance was determined as 0.888 ± 0.14.
For the target UBA7 (UniProt P41226), the NP40-soluble protein abundance amounted to 0.959 ± 0.056.
For ACTR1B (UniProt P42025), the NP40-soluble protein abundance is 0.927 ± 0.12.
Regarding UniProt P52824 and related entries, the NP40-soluble protein abundance turned out to be 0.979 ± 0.023.
For the target SUCLG1 (UniProt P53597), the NP40-soluble protein abundance was determined as 0.984 ± 0.033.
For the target UniProt P49959, the NP40-soluble protein abundance is 1.01 ± 0.013.
For UniProt P41214, the NP40-soluble protein abundance is 0.996 ± 0.059.
For the target HLCS (UniProt P50747), the NP40-soluble protein abundance was found to be 0.951 ± 0.022.
With UniProt P48634 and related entries, the NP40-soluble protein abundance is 1.12 ± 0.071.
In the case of UniProt P51572 and related entries, the NP40-soluble protein abundance turned out to be 1.09 ± 0.099.
Still for that read-out and setting: the same measure for PIK3CA (UniProt P42336): 0.935 ± 0.068.
On to UniProt P49757 and related entries, for which the NP40-soluble protein abundance turned out to be 1.1 ± 0.071.
Same read-out and setting: the same measure for UniProt P50053 and related entries: 1 ± 0.025.
